Here are results for one molecule from PMC10576032.

The target of this assay is T1, ATF3 (activating transcription factor 3) (human (endogenous in the paper's human cell lines; line of the co-IP not stated)) (UniProt P18847).
T1 sequence: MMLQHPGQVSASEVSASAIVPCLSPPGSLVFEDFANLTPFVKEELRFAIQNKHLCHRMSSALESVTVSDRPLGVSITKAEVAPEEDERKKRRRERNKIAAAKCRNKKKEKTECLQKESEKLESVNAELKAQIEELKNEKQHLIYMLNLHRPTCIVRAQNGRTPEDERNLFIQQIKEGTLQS
In words: co-IP; ATF3 antibody immobilised on Dynabeads; cells treated with DMSO or 100 nM sangivamycin for 24 h; western blot of the co-IP complex. In general terms: A western blot detects proteins with antibodies after separation by electrophoresis.

Results are given in words; binding and its absence hold for the method and conditions named. Binding seen in cells or lysates may run through a third protein.

B1: DDIT4 (protein, UniProt Q9NX09 1-232)
chain: MPSLWDRFSSSSTSSSPSSLPRTPTPDRPPRSAWGSATREEGFDRSTSLESSDCESLDSSNSGFGPEEDTAYLDGVSLPDFELLSDPEDEHLCANLMQLLQESLAQARLGSRRPARLLMPSQLVSQVGKELLRLAYSEPCGLRGALLDVCVEQGKSCHSVGQLALDPSLVPTFQLTLVLRLDSRLWPKIQGLFSSANSPFLPGFSQSLTLSTGFRVIKKKLYSSEQLLIEEC
On to B1, for which the binding entry was “no binding”.
